Data as given in PubChem BioAssay AID652243 (Drosophila RNAi Screening Center, 2013)
The screen tested about 24,000 reagents; shown is an unselected part of those with a known target gene and a result. Of all reagents, 246 (1%) were called active. 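Plates not normalised; calls are printed but the firefly/Renilla ratio behind them is not deposited; fold cut for lowering reported inconsistently.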 Raw values vary from plate to plate and are shown uncorrected. Not given: the amount of reagent.

- Test: 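Knock-downs that decrease or increase androgen receptor reporter signal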 (primary screen)
- Cell system: Drosophila S2R+ cells
- Reagent: long dsRNA against Drosophila genes
- Timing: 72 h (48 h, then 24 h hormone)
- Conditions: synthetic androgen R1881 at 10 nM for 24 h
- Measured: 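Firefly light from an androgen-responsive reporter and Renilla control light per well, raw and unnormalised, for each of two replicates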
- Reading the numbers: firefly reporter light: higher = more light from androgen-responsive reporter; Renilla control light: higher = more constitutive control signal (cell number, transfection)
- Hit rule: 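Across duplicate plates, a knock-down whose log firefly/Renilla ratio shifted a set fold down or up from the GFP/LacZ control mean was a hit; the downward cut appears as both 1.5 and 3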
- Calls: active = hit: reporter lowered or raised; inactive = no hit

gene,dsRNA,"firefly reporter light, replicate 1","firefly reporter light, replicate 2","Renilla control light, replicate 1","Renilla control light, replicate 2",activity call
Aldh (Aldehyde dehydrogenase),DRSC02717,1.92e5,2.36e5,1.32e6,1.63e6,inactive
Syx16 (Syntaxin 16),DRSC20507,53364,28918,4.55e5,6.11e5,inactive
Syx16 (Syntaxin 16),DRSC27163,2.23e5,2.28e5,4.37e5,4.79e5,inactive
CG8032,DRSC16365,1.36e5,94342,1.92e6,2.07e6,inactive
CG8032,DRSC29586,3.88e5,3.07e5,1.05e6,1.05e6,inactive
CG14441,DRSC24967,6.93e5,7.00e5,9.29e5,1.20e6,inactive
CG2926,DRSC12321,40524,45371,7.07e5,5.87e5,inactive
Prosbeta4R2 (Proteasome beta4 subunit-related 2),DRSC00503,7.34e5,6.82e5,2.50e6,1.72e6,inactive
Prosbeta4R2 (Proteasome beta4 subunit-related 2),DRSC28235,6.03e5,8.83e5,1.13e6,1.67e6,inactive
smp-30 (Senescence marker protein-30),DRSC17059,1.52e5,2.54e5,2.48e6,3.30e6,inactive
smp-30 (Senescence marker protein-30),DRSC26913,4.27e5,3.91e5,5.95e5,6.24e5,inactive
CG2070,DRSC06814,3.83e5,3.29e5,1.41e6,1.30e6,inactive
sip3 (septin interacting protein 3),DRSC15402,49473,76719,5.18e5,4.20e5,inactive
sip3 (septin interacting protein 3),DRSC29484,3.69e5,4.39e5,6.86e5,6.86e5,inactive
Smu1 (Smu1 spliceosomal factor),DRSC15803,88166,49196,5.82e5,4.29e5,inactive
CG10000,DRSC14170,2.79e5,2.46e5,2.07e6,2.96e6,inactive
CG10000,DRSC29791,9.55e5,4.85e5,1.50e6,9.14e5,inactive
CR33315 (pseudo),DRSC22947,2.51e5,9.49e5,6.99e5,2.11e6,inactive
CR33315 (pseudo),DRSC27669,2.07e5,1.92e5,4.06e5,7.79e5,inactive
CG34284,DRSC14773,1.90e5,2.37e5,2.00e6,2.54e6,inactive
osa,DRSC17022,66199,51514,4.40e5,4.40e5,inactive
PRL-1 (PRL-1 phosphatase),DRSC03393,1.90e5,2.44e5,2.53e6,3.01e6,inactive
PRL-1 (PRL-1 phosphatase),DRSC27332,2.25e5,2.06e5,6.39e5,5.89e5,inactive
PRL-1 (PRL-1 phosphatase),DRSC37036,,,,,inactive
HP1D3csd (Heterochromatin Protein 1D3 chromoshadow domain),DRSC19548,1.54e5,1.55e5,7.37e5,5.04e5,inactive
CG12375,DRSC02163,4.61e5,6.00e5,1.34e6,1.38e6,inactive
CG12375,DRSC26794,3.29e5,2.33e5,5.80e5,4.60e5,inactive
CG5646,DRSC15853,1.00e5,78137,6.20e5,5.16e5,inactive
CG5646,DRSC29759,7.56e5,7.81e5,1.23e6,1.74e6,inactive
CG30357,DRSC22472,4.55e5,9.87e5,1.62e5,2.16e5,inactive
"mAChR-A (muscarinic Acetylcholine Receptor, A-type)",DRSC04702,4.96e5,3.87e5,1.60e6,1.24e6,inactive
"mAChR-A (muscarinic Acetylcholine Receptor, A-type)",DRSC28262,4.31e5,7.09e5,9.63e5,1.71e6,inactive
MKP-4 (MAPK Phosphatase 4),DRSC19567,52166,65932,5.08e5,4.23e5,inactive
MKP-4 (MAPK Phosphatase 4),DRSC27673,3.17e5,2.25e5,4.20e5,5.40e5,inactive
MKP-4 (MAPK Phosphatase 4),DRSC36827,,,,,inactive
ap (apterous),DRSC04917,7.61e5,5.45e5,2.44e6,2.42e6,inactive
gl (glass),DRSC27242,1.87e5,1.86e5,4.13e5,4.43e5,inactive

Records above whose gene name begins with A or a:
gene,dsRNA,"firefly reporter light, replicate 1","firefly reporter light, replicate 2","Renilla control light, replicate 1","Renilla control light, replicate 2",activity call
Aldh (Aldehyde dehydrogenase),DRSC02717,1.92e5,2.36e5,1.32e6,1.63e6,inactive
ap (apterous),DRSC04917,7.61e5,5.45e5,2.44e6,2.42e6,inactive

The list goes on.
gene,dsRNA,"firefly reporter light, replicate 1","firefly reporter light, replicate 2","Renilla control light, replicate 1","Renilla control light, replicate 2",activity call
Or7a (Odorant receptor 7a),DRSC18691,2.88e5,4.45e5,2.22e6,3.83e6,inactive
pch2 (pachytene checkpoint 2),DRSC14368,67767,55788,1.89e6,1.28e6,inactive
Rtf1,DRSC04085,9.09e5,8.22e5,1.49e6,1.37e6,inactive
Rtf1,DRSC29441,3.44e5,2.47e5,6.47e5,6.47e5,inactive
CysRS (Cysteinyl-tRNA synthetase),DRSC05948,3.30e5,4.68e5,2.33e6,3.08e6,inactive
CysRS (Cysteinyl-tRNA synthetase),DRSC26620,2.29e5,1.82e5,5.14e5,5.18e5,inactive
Rcd2 (Reduction in Cnn dots 2),DRSC11756,1.47e5,1.23e5,2.37e6,2.07e6,inactive
CG10311,DRSC14228,1.92e5,1.99e5,2.60e6,2.55e6,inactive
Lrr47 (Leucine-rich repeat 47),DRSC03365,8.91e5,1.58e6,9.68e5,1.74e6,inactive
disp (dispatched),DRSC12376,25857,23916,6.00e5,5.80e5,inactive
GstE5 (Glutathione S transferase E5),DRSC06675,2.53e5,2.68e5,2.59e6,2.51e6,inactive
Traf-like (TNF-receptor-associated factor-like),DRSC19894,72901,1.40e5,6.00e5,6.17e5,inactive
CG15160,DRSC02461,1.77e5,1.93e5,2.19e6,2.37e6,inactive
CG15160,DRSC27129,3.29e5,2.65e5,5.98e5,5.16e5,inactive
cGlr1 (cGAS-like receptor 1),DRSC06270,83734,1.04e5,1.31e6,1.31e6,inactive
krimp (krimper),DRSC06578,4.12e5,2.93e5,5.75e5,4.49e5,inactive
Trf4-2 (Topoisomerase related function 4-2),DRSC15237,94639,1.21e5,2.74e6,2.31e6,inactive
Trf4-2 (Topoisomerase related function 4-2),DRSC25949,3.00e5,4.05e5,8.26e5,8.99e5,inactive
CG6901,DRSC16129,2.45e5,2.38e5,2.88e6,2.56e6,inactive
CG6901,DRSC26477,2.40e5,2.12e5,2.76e5,3.15e5,inactive
RIOK1 (RIO kinase 1),DRSC09853,8.72e5,7.49e5,2.12e6,2.60e6,inactive
RIOK1 (RIO kinase 1),DRSC36896,,,,,inactive
RIOK1 (RIO kinase 1),DRSC36897,,,,,inactive
